From PubChem BioAssay AID2685 (National Center for Advancing Translational Sciences (NCATS), 2010)
The list shows a part of the results. The main result of the screen is listed elsewhere. These columns were measured beside it and carry no call. Compounds called inactive in the main read-out are mostly missing here. Potencies come from curve fits of mixed quality, noted in brackets.

Assay: qHTS Assay for Lipid Storage Modulators in Drosophila S3 Cells;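 on cell number change: cells counted by Cell Tracker Red CMTPX staining in the red channel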
Conditions: BODIPY lipid droplet fluorescence, 18-24 h; for cell number change: measured here: cell count max response, cells fed with added oleic acid
How it was run: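 Drosophila S3 cells loaded with oleic acid (400 uM, as added) and compounds at several concentrations; lipid droplets imaged by 488-nm laser-scanning cytometry, 500–530 nm intensity and object ratio to cell channel. Percent activity normalized to 20 uM Triacsin C.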

[1] = measured here: cell number channel AC50, cells fed with added oleic acid
[2] = measured here: lipid fluorescence (Fed channel) AC50, cells fed with added oleic acid

| Compound | cell number change [%] | AC50 [1] | AC50 [2] |
| --- | --- | --- | --- |
| O=C(COC(=O)c1cccc(C(=O)OCC(=O)NC2CC2)n1)NC1CC1 | 87 | 18.4 µM [rising, single point] |  |
| O=C(NCc1cccs1)c1cc(-c2ccccn2)nc2ccc(Br)cc12 | -3.38 | 0.146 µM [falling, full curve, poor fit] | 0.146 µM [falling, full curve, poor fit] |
| Oc1[nH]c2ccccc2c1N=Nc1cccc(Cl)c1 | -29.8 |  | 8.2 µM [falling, partial curve] |
| Cc1ccc(C(=O)OCC(=O)Nc2ncc(Cl)cc2Cl)cc1NC(=O)c1ccco1 | 174 | 29.1 µM [rising, single point] |  |
| CCOc1ccc(NC(=S)NCc2ccc3[nH]c(C)cc3c2)cc1 | 7.2 | 4.61 µM [rising, single point] |  |
| Cn1c(SCc2ccccn2)nc2c1c(=O)[nH]c(=O)n2C |  |  | 5.17 µM [falling, partial curve] |
| COc1ccc(NC(=O)c2ccc(-n3cnnn3)cc2)c([N+](=O)[O-])c1 | 42.6 | 4.61 µM [rising, full curve] |  |
| Cn1ncc(Cl)c1C(=O)N1CCN(C(=O)c2ccco2)CC1 | 14.6 |  | 6.51 µM [rising, single point] |
| S=c1[nH]nc(-c2cc(-c3ccccc3)n[nH]2)n1/N=C/c1cccc(Cl)c1 | -23 |  | 25.9 µM [falling, single point] |
| CN(C(=O)COC(=O)c1c2c(nc3ccccc13)CCCC2)c1c(N)n(Cc2ccccc2)c(=O)[nH]c1=O | 57.5 | 10.3 µM [rising, partial curve] |  |
| CC(NC(=O)NCc1cccnc1)(C(F)(F)F)C(F)(F)F | -14.1 |  | 0.00461 µM [falling, full curve] |
| O=C(NCCCO)c1ccc(CSc2nc3ccccc3c(=O)[nH]2)cc1 | 1.59 |  |  |
| Cc1nn(C)c(C)c1NC(=O)c1cnn2c(C(F)F)cc(-c3ccccc3)nc12 | 5.56 |  |  |
| COc1ccc(CC(=O)Nc2ccc(-c3noc(COc4ccccc4C)n3)cc2)cc1 | -32.7 | 13 µM [falling, partial curve] | 14.6 µM [falling, partial curve] |
| CC(=O)Nc1nc(C)c(-c2csc(Nc3cccc([N+](=O)[O-])c3)n2)s1 |  |  | 0.58 µM [rising, full curve] |
| O=C(c1cccc(S(=O)(=O)N2CCc3ccccc32)c1)N1CCCC(C(F)(F)F)C1 (stereo unspecified) | 6.81 |  | 14.6 µM [rising, partial curve] |
| Cc1ccc(NC(=O)c2nc[nH]c2C(=O)N[C@@H](CCCCNC(=O)OC(C)(C)C)C(=O)OC(C)(C)C)cc1 | 9.09 |  | 2.59 µM [rising, full curve] |
| COc1cccc(Nc2ncnc3sccc23)c1 | 21.4 |  | 2.31 µM [falling, full curve, poor fit] |
| O=C1C2C3C=CC(CC3)C2C(=O)N1/N=C/c1c[nH]c2ccccc12 (stereo unspecified) |  |  | 0.13 µM [rising, full curve, poor fit] |
| O=C(COC(=O)/C=C/c1cccc(Cl)c1)NC(=O)NCc1ccccc1 | -38.5 | 16.4 µM [falling, single point] | 0.146 µM [falling, full curve, poor fit] |

| Compound | cell number change [%] | AC50 [1] | AC50 [2] |
| --- | --- | --- | --- |
| CC(=O)Nc1ccc(S(=O)(=O)Nc2nc3n(n2)C(c2ccccc2)CC(=O)N3)cc1 (stereo unspecified) | -29.7 | 1.16 µM [falling, full curve, poor fit] | 3.26 µM [falling, full curve] |
| O=C(CSCc1ccc(Cl)cc1Cl)Nc1ccc(O)cc1C(=O)O | 20.4 |  | 29.1 µM [rising, single point] |
| COCCn1c(=S)[nH]c2cc(C(=O)N(CCO)Cc3ccccc3)ccc2c1=O | -30.9 | 5.8 µM [falling, partial curve] |  |
| CC(C)CNC(=O)COC(=O)c1ccccc1OCC(=O)Nc1ccc(Br)cc1 | 5.22 |  | 0.58 µM [rising, full curve, poor fit] |
| COC(=O)[C@H](CCSC)NC(=O)Nc1ccc(C)cc1 | 2.05 |  |  |
| OC1(C#CCCN2CCCCC2)c2ccccc2-c2ccccc21 | 2.13 | 6.51 µM [falling, single point] | 0.0259 µM [rising, full curve, poor fit] |
| CSc1ccccc1C(=O)N1CCc2ccccc2C1 | -3.28 |  | 0.116 µM [falling, partial curve, poor fit] |
| CCOC(=O)CCCCCN1C(=O)c2cccc3cccc(c23)C1=O | 1.66 |  | 6.51 µM [falling, single point] |
| O=C(NN1CCOCC1)c1cc(-c2ccc(Cl)c(Cl)c2)nc2ccccc12 | 11.8 |  | 1.64 µM [rising, partial curve] |
| CN(C)c1ccc(N=Nc2ccccc2C(=O)OCC(=O)Nc2ccccc2C(F)(F)F)cc1 | -82.4 | 29.1 µM [falling, single point] | 2.59 µM [rising, partial curve] |
| COc1ccccc1CNC(=O)CCCc1nnc2n(C)c(=O)c3sccc3n12 |  |  | 1.64 µM [falling, partial curve, poor fit] |
| Cc1nc2c(cc(Oc3ccc(S(=O)(=O)N4CCOCC4)cn3)c3ccsc32)s1 | -9.31 |  |  |
| COCc1nnc(NC(=O)COc2ccc3c(c2)OCO3)s1 | 0.855 |  | 2.06 µM [rising, single point] |
| CCCc1cc(=O)n2nc(N3CCC(C(=O)Nc4c(F)c(F)c(F)c(F)c4F)CC3)sc2n1 | 22.8 |  | 25.9 µM [rising, single point] |
| CC(=O)c1ccc(N2CCN(S(=O)(=O)c3ccc(-c4cnc(C5CC5)o4)cc3)CC2)cc1 |  |  | 29.1 µM [rising, single point] |
| COc1ccc(/C=N/Nc2nc(N3CCCC3)nc(N3CCCC3)n2)cc1O | -13.6 |  | 29.1 µM [falling, partial curve, poor fit] |
| COc1cc2nc(COc3ccccc3[N+](=O)[O-])oc(=O)c2cc1OC | 44.3 | 6.51 µM [rising, partial curve] | 6.51 µM [rising, partial curve] |
| COc1ccc(C(C)C)cc1S(=O)(=O)N1CCN(C)CC1 | 14.6 |  |  |
| Cc1[nH]n2cnnc2c(=O)c1Br | 8.07 |  | 16.4 µM [rising, partial curve] |
| Fc1ccccc1N1CCN(c2nnnn2-c2ccccc2)CC1 |  |  | 4.11 µM [rising, partial curve, poor fit] |

| Compound | cell number change [%] | AC50 [1] | AC50 [2] |
| --- | --- | --- | --- |
| Cc1ccc(C(=O)Nc2cc(Cl)ccc2-n2cncn2)o1 | 3.49 | 0.651 µM [rising, full curve, poor fit] | 0.58 µM [rising, full curve] |
| CCOc1ccc(N(CC(=O)Nc2ccc(C)c(F)c2)C2=NC3CS(=O)(=O)CC3S2)cc1 (stereo unspecified) | 21.7 |  |  |
| CCC(=O)Nc1ccc(C(=O)COC(=O)CCN2C(=O)C3CC=CCC3C2=O)cc1 (stereo unspecified) |  |  | 6.51 µM [rising, partial curve] |
| CCOc1ccc(C(=O)NCC2CCCN2S(=O)(=O)c2cccs2)cc1 (stereo unspecified) | -16.2 | 2.31 µM [rising, partial curve] |  |
| CCCOCC1CC2(SC(=Nc3ccc(C)cc3)NC2=O)C(=O)O1 (stereo unspecified) |  |  | 4.61 µM [falling, single point] |
| CC(C)CNC(=O)c1ccccc1NC(=O)Nc1ccccc1 | 51.1 | 2.31 µM [rising, full curve] | 3.66 µM [rising, partial curve] |
| CC(=O)c1ccccc1NC(=O)COC(=O)Cc1cccc(C(F)(F)F)c1 | 20.6 |  |  |
| O=C(NCc1ccc(F)cc1)c1ccc2c(=O)n3c(nc2c1)CCCCC3 | 1.44 |  | 0.291 µM [rising, single point] |
| O=C(OCn1nnc2ccccc2c1=O)c1cccc(S(=O)(=O)N2CCOCC2)c1 | -7.98 |  |  |
| Cc1oc(-c2cccs2)nc1CS(=O)CC(=O)NCc1ccc2c(c1)OCO2 (stereo unspecified) | 23.1 | 0.00651 µM [rising, full curve, poor fit] | 16.4 µM [rising, partial curve] |
| CCc1cc(=O)oc2cc(OC(C)C(=O)NCC3CCC(C(=O)O)CC3)c(Cl)cc12 (stereo unspecified) | 23.6 |  |  |
| CN(c1cc(=O)n2ccccc2n1)C1CCCCC1 | 0.0568 |  | 0.82 µM [rising, full curve] |
| COc1ccc(C(=O)C2CCN(C(=O)c3ccco3)CC2)cc1 | 41.1 | 29.1 µM [rising, single point] | 29.1 µM [rising, single point] |
| COc1ccc2cc3c(N)nn(C(=O)Cc4ccc(Cl)cc4)c3nc2c1 | -39.7 | 9.2 µM [falling, partial curve, poor fit] | 0.00461 µM [rising, full curve, poor fit] |
| CC1CCCCC12NC(=O)N(CC(=O)N1CCN(c3ncccn3)CC1)C2=O (stereo unspecified) | -20.8 |  | 32.6 µM [falling, single point] |
| CCCc1[nH]n(-c2nc3ccccc3s2)c(=O)c1C=NCC(C)C | 25.8 |  | 6.51 µM [rising, single point] |
| O=C(c1ccc(S(=O)(=O)Nc2ccccc2Cl)cc1)N1CCOCC1 | 125 | 29.1 µM [rising, single point] |  |
| CCCCNC(=O)CC1SC(=NCC)N(CC)C1=O (stereo unspecified) |  |  | 4.11 µM [rising, single point] |
| CC(=O)Nc1ccc(SC(C)C(=O)NC(N)=O)cc1 (stereo unspecified) |  |  | 20.6 µM [falling, partial curve] |

Gathered by group: the entries above with a nitro group on carbon.

| Compound | cell number change [%] | AC50 [1] | AC50 [2] |
| --- | --- | --- | --- |
| COc1ccc(NC(=O)c2ccc(-n3cnnn3)cc2)c([N+](=O)[O-])c1 | 42.6 | 4.61 µM [rising, full curve] |  |
| CC(=O)Nc1nc(C)c(-c2csc(Nc3cccc([N+](=O)[O-])c3)n2)s1 |  |  | 0.58 µM [rising, full curve] |
| COc1cc2nc(COc3ccccc3[N+](=O)[O-])oc(=O)c2cc1OC | 44.3 | 6.51 µM [rising, partial curve] | 6.51 µM [rising, partial curve] |
